These are yes or no findings as the source states them, for the method shown. In cells and extracts the contact can be indirect.

By UniProt entry, the sequences of proteins in these tests, tags left out. Where a name states a change or a piece, a line headed by the entry shows the natural chain unless it says otherwise. Residues count along the entry.
UniProt P08581, residues 25-1390: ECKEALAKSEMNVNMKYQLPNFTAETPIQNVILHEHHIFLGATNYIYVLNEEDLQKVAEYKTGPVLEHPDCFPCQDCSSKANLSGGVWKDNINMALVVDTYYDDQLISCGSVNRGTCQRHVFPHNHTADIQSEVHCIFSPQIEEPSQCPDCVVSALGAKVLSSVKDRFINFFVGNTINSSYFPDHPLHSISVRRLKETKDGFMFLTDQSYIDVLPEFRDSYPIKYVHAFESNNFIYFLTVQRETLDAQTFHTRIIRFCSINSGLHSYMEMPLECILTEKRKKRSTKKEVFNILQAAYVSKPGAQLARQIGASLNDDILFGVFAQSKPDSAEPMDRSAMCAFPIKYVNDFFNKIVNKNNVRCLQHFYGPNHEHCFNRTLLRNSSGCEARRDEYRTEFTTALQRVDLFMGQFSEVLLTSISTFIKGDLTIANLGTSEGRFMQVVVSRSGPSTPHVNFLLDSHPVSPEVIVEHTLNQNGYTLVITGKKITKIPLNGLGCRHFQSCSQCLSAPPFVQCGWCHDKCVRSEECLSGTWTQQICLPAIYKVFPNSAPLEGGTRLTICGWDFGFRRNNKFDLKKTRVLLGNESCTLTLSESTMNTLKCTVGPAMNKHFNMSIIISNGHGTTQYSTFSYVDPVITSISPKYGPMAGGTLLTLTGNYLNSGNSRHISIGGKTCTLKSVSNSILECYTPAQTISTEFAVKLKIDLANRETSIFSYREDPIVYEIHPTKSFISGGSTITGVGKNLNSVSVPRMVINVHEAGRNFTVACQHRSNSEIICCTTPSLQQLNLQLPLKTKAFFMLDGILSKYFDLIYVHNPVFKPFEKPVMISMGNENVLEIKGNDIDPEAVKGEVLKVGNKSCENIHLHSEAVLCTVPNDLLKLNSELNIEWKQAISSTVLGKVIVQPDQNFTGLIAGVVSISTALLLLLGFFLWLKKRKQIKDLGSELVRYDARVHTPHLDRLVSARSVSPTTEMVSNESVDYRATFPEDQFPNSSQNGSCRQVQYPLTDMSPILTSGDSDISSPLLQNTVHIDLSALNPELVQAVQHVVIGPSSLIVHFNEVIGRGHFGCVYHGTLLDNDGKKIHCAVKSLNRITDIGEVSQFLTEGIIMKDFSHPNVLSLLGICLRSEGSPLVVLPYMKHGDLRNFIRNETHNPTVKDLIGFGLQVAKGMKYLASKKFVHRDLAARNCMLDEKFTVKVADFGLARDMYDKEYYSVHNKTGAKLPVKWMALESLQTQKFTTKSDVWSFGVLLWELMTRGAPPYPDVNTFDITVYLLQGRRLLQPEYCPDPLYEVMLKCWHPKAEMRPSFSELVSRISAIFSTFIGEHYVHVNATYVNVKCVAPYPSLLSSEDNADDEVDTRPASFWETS
UniProt P04233: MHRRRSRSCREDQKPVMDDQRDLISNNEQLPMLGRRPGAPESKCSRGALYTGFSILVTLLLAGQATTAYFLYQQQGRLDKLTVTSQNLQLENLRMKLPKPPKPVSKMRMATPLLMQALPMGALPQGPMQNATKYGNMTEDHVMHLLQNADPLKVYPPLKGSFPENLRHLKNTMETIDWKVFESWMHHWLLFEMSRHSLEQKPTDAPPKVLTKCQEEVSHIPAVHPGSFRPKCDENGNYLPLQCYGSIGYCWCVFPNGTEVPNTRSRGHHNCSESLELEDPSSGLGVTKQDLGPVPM

This assay has as its target receptor tyrosine kinase MET (human (endogenous in ALCL cell lines)) (UniProt P08581). The assay is described as follows: co-IP; various immunoprecipitation approaches in ALCL cell lines; endogenous proteins; no further details given.

On to “CD74 (invariant chain of major histocompatibility complex [MHC]-II) (from UniProt P04233 1-296)”, for which the binding entry is given as “no binding”.

(Values after PMC8507667.)
